The text below walks through data of patent publication US6348309B1, “Process for inactivating viruses in blood and blood products” (priority 1989, dated 2002).

A short description of this series: Batch removal of MB from fresh plasma by adsorbing agents: extinction and protein (Example 14). Conditions: fresh plasma + MB 10 μM, no adsorbing agent.

Take `CN(C)c1ccc2nc3ccc(=[N+](C)C)cc-3sc2c1` [MB, methylene blue]: the “E (660 nm)” value amounted to 1.450 and the Protein is 65.6 mg/mL.
